Test results: US20250186313A1, “SCALP OR HAIR CARE COMPOSITION COMPRISING NANO-CARBON STRUCTURE” (INBCT Co., Ltd., priority 2022, published 2025)
At least one structure is not confirmed: it was looked up by name or label, or the drawing left a doubt.

Test system: artificial skin model KeraSkin
Experiment: Skin barrier function improvement in SDS-damaged KeraSkin (TEER, TEWL, H&E, immunohistochemistry)
Type: cell-based, human
Conditions: KeraSkin damaged with 2% SDS, 10 μM retinoic acid or 0.01 wt % NGO

Question: With `CC1=C(/C=C/C(C)=C/C=C/C(C)=C/C(=O)O)C(C)(C)CCC1` [retinoic acid] as the compound, how does the “histopathology by H&E staining” value (compared to the barrier damage group) read?
Answer: recovery of the basal layer and vacuoles between cells were improved

Question: What about the “expressions of filaggrin, p63, E-cadherin and CK14 (immunohistochemical staining)” value (compared to the barrier damaged group) of the same compound?
Answer: all increased
